Measurements published in US20230220057A1 (STAIDSON BEIJING BIOPHARMACEUTICALS, published 2023).
Numbering of substitutions follows the chain as printed. Results are given in words; binding and its absence hold for the method and conditions named. Some binding calls cover weakened binding; strength is not graded here.

Protein sequences, listed by entry. Tags and fused reporters are not part of them. Lines headed by an entry give the natural chain unless they say otherwise; changes in a name come on top.
UniProt P01138: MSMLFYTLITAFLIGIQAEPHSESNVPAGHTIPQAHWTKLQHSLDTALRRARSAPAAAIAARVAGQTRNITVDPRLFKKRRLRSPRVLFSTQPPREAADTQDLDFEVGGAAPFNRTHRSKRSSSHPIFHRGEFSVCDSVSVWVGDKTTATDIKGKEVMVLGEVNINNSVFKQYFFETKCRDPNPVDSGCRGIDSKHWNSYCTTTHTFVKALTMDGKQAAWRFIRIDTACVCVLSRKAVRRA

B1: Ab47 (antibody, human IgG1, V domains shown)
VH: EVQLVQSGAEVKKPGESLKISCKGSGYSFITYWISWVRQMPGKGLEWMGAIDPSDSDARYSPSFQGQVTISADKSISTAYLQWSSLKASDTAMYYCAKSDPGYSGYSLLYGFDSWGQGTLVTVSS
VL: DIVMTQSPLSLPVTLGQPASISCRSSQSLVQRNGNTYLSWFQQRPGQSPRLLIYQVSNRYSGVPDRFSGSGSGTDFTLKISRVEAEDVGVYYCGQGAHLPLTFGQGTKVEIK
B2: Ab52 (antibody, human IgG1, V domains shown)
VH: B1 VH with G24I
VL: B1 VL with S7T, L11S, F41Y, S48P, S72A
B3: Ab56 (antibody, human IgG1, V domains shown)
VH: B1 VH with G24I
VL: B1 VL with I2V, S48P
B4: Ab58 (antibody, human IgG1, V domains shown)
VH: B1 VH with G24I
VL: B1 VL with F41Y
B5: Ab44 (antibody, human IgG1, V domains shown)
VH: B1 VH
VL: B1 VL with I2V, F41Y
B6: Ab54 (antibody, human IgG1, V domains shown)
VH: B1 VH with G24I
VL: B1 VL with I2V, F41Y

molecular target: recombinantly produced human-NGF (human, UniProt P01138 122-241, limits assumed); assay: NGF binding ELISA

binding, binds:
B1
B2
B3
B4
B5
B6
